PubChem BioAssay AID1259254, NCATS – 2017
Shown is a random part of about 59,000 deposited reagents. Of all reagents, about 1,550 (2.6%) are marked active. 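G2 share is only a proxy for re-replication; each gene was hit by three separate siRNAs, and active genes were retested.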 The numbers tell different reagents against one gene apart. Further read-outs or replicates are left out here. The record does not give: the amount of reagent.

Aim: 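Gene knock-downs that lead to re-replication, shown by excess G2 DNA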 (primary screen)
Cell system: human HCT116 colorectal cancer cells
Reagents: single siRNA against human genes
Time to read-out: 3 days
Measurement: 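Imaged Hoechst DNA stain sorts each cell into a cycle phase by DNA amount; per plate, G2 fraction set to 0% for non-targeting and 100% for GMNN siRNA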
Scale: G2 robust z-score: higher = more G2 cells, more excess DNA replication
Rule for the call: 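An siRNA counts as active if its G2 robust z-score lies at least 5 MADs above the screen median; here such calls match roughly 38% of GMNN control or more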

Target gene | reagent | G2 robust z-score | Outcome
GPR12 (GeneID 2835) | 1 | -0.839 | inactive
GPR12 (GeneID 2835) | 2 | -1.01 | inactive
GPR12 (GeneID 2835) | 3 | 0.324 | inactive
TBC1D1 (GeneID 23216) | 1 | 0.368 | inactive
TBC1D1 (GeneID 23216) | 2 | 0.33 | inactive
TBC1D1 (GeneID 23216) | 3 | -1.11 | inactive
PDE6B (GeneID 5158) | 1 | 0.415 | inactive
PDE6B (GeneID 5158) | 2 | 0.142 | inactive
PDE6B (GeneID 5158) | 3 | 2.52 | inactive
UGCG (GeneID 7357) | 1 | -0.235 | inactive
UGCG (GeneID 7357) | 2 | 4.15 | inactive
UGCG (GeneID 7357) | 3 | 0.436 | inactive
FUNDC1 (GeneID 139341) | 1 | -0.188 | inactive
FUNDC1 (GeneID 139341) | 2 | 2.55 | inactive
FUNDC1 (GeneID 139341) | 3 | -0.254 | inactive
SBNO1 (GeneID 55206) | 1 | 2.89 | inactive
SBNO1 (GeneID 55206) | 2 | 1.13 | inactive
SBNO1 (GeneID 55206) | 3 | -0.0818 | inactive
SDK2 (GeneID 54549) | 1 | 1.92 | inactive
SDK2 (GeneID 54549) | 2 | 1.48 | inactive
SDK2 (GeneID 54549) | 3 | -1.1 | inactive
RIMS3 (GeneID 9783) | 1 | -1.22 | inactive
RIMS3 (GeneID 9783) | 2 | 0.457 | inactive
RIMS3 (GeneID 9783) | 3 | -0.541 | inactive
OR6C76 (GeneID 390326) | 1 | -0.377 | inactive
OR6C76 (GeneID 390326) | 2 | -0.698 | inactive
OR6C76 (GeneID 390326) | 3 | -0.718 | inactive
STRA6 (GeneID 64220) | 1 | 4.12 | inactive
STRA6 (GeneID 64220) | 2 | -0.664 | inactive
STRA6 (GeneID 64220) | 3 | -0.254 | inactive

Laid out differently: 6 of the entries above
TBC1D1 (GeneID 23216) #1: G2 robust z-score = 0.368; Outcome = inactive
TBC1D1 (GeneID 23216) #2: G2 robust z-score = 0.33; Outcome = inactive
TBC1D1 (GeneID 23216) #3: G2 robust z-score = -1.11; Outcome = inactive
PDE6B (GeneID 5158) #1: G2 robust z-score = 0.415; Outcome = inactive
PDE6B (GeneID 5158) #2: G2 robust z-score = 0.142; Outcome = inactive
PDE6B (GeneID 5158) #3: G2 robust z-score = 2.52; Outcome = inactive

The listing continues.
Target gene | reagent | G2 robust z-score | Outcome
ABI3BP (GeneID 25890) | 1 | 1.19 | inactive
ABI3BP (GeneID 25890) | 2 | 0.1 | inactive
ABI3BP (GeneID 25890) | 3 | -0.191 | inactive
SLC48A1 (GeneID 55652) | 1 | 1.28 | inactive
SLC48A1 (GeneID 55652) | 2 | 0.449 | inactive
SLC48A1 (GeneID 55652) | 3 | 5.83 | active
BTBD10 (GeneID 84280) | 1 | 0.624 | inactive
BTBD10 (GeneID 84280) | 2 | -1.03 | inactive
BTBD10 (GeneID 84280) | 3 | -0.347 | inactive
EDAR (GeneID 10913) | 1 | 0.112 | inactive
EDAR (GeneID 10913) | 2 | 1.14 | inactive
EDAR (GeneID 10913) | 3 | -0.435 | inactive
COMMD7 (GeneID 149951) | 1 | 1.71 | inactive
COMMD7 (GeneID 149951) | 2 | 1.28 | inactive
COMMD7 (GeneID 149951) | 3 | -0.00611 | inactive
CNTN3 (GeneID 5067) | 1 | 0.706 | inactive
CNTN3 (GeneID 5067) | 2 | -1.01 | inactive
CNTN3 (GeneID 5067) | 3 | 0.0827 | inactive
PPT1 (GeneID 5538) | 1 | 1.68 | inactive
PPT1 (GeneID 5538) | 2 | 0.203 | inactive
PPT1 (GeneID 5538) | 3 | 0.431 | inactive
KRTAP9-1 (GeneID 728318) | 1 | 1.82 | inactive
KRTAP9-1 (GeneID 728318) | 2 | -0.476 | inactive
KRTAP9-1 (GeneID 728318) | 3 | -0.786 | inactive
FAM229B (GeneID 619208) | 1 | -0.054 | inactive
FAM229B (GeneID 619208) | 2 | -0.33 | inactive
FAM229B (GeneID 619208) | 3 | 2.75 | inactive
TLE1 (GeneID 7088) | 1 | -0.452 | inactive
TLE1 (GeneID 7088) | 2 | -0.796 | inactive
TLE1 (GeneID 7088) | 3 | 0.0637 | inactive
NUCKS1 (GeneID 64710) | 1 | 2.35 | inactive
NUCKS1 (GeneID 64710) | 2 | -0.0655 | inactive
NUCKS1 (GeneID 64710) | 3 | -0.531 | inactive
SSB (GeneID 6741) | 1 | -1.04 | inactive
SSB (GeneID 6741) | 2 | -0.766 | inactive
SSB (GeneID 6741) | 3 | -0.271 | inactive
BMS1P15 (GeneID 642311) | 1 | 0.0169 | inactive
BMS1P15 (GeneID 642311) | 2 | 0.0586 | inactive
BMS1P15 (GeneID 642311) | 3 | 0.407 | inactive
AIFM2 (GeneID 84883) | 1 | -0.832 | inactive
AIFM2 (GeneID 84883) | 2 | -0.995 | inactive
AIFM2 (GeneID 84883) | 3 | -0.91 | inactive
NCAM2 (GeneID 4685) | 1 | -1.08 | inactive
NCAM2 (GeneID 4685) | 2 | 1.08 | inactive
NCAM2 (GeneID 4685) | 3 | -1.13 | inactive
VIRMA (GeneID 25962) | 1 | 0.761 | inactive
VIRMA (GeneID 25962) | 2 | -0.626 | inactive
VIRMA (GeneID 25962) | 3 | 2.08 | inactive
ENO4 (GeneID 387712) | 1 | -1.38 | inactive
ENO4 (GeneID 387712) | 2 | 1.58 | inactive
ENO4 (GeneID 387712) | 3 | -0.0644 | inactive
DDX25 (GeneID 29118) | 1 | 0.792 | inactive
DDX25 (GeneID 29118) | 2 | -0.294 | inactive
DDX25 (GeneID 29118) | 3 | 2.83 | inactive
EDDM3B (GeneID 64184) | 1 | -1.35 | inactive
EDDM3B (GeneID 64184) | 2 | 0.541 | inactive
EDDM3B (GeneID 64184) | 3 | 1.32 | inactive
